According to article PMC8980994:
These are yes or no findings as the source states them, for the method shown. Binding seen in cells or lysates may run through a third protein. Some binding calls cover weakened binding; strength is not graded here.

The chains behind the UniProt entries cited, without tags or fusion partners. Where a name states a change or a piece, a line headed by the entry shows the natural chain unless it says otherwise. A line that says so, or that is headed by a name, gives the form on record, which may keep a tag or linker. Residues count along the entry.
UniProt Q99IB8, residues 1977-2442: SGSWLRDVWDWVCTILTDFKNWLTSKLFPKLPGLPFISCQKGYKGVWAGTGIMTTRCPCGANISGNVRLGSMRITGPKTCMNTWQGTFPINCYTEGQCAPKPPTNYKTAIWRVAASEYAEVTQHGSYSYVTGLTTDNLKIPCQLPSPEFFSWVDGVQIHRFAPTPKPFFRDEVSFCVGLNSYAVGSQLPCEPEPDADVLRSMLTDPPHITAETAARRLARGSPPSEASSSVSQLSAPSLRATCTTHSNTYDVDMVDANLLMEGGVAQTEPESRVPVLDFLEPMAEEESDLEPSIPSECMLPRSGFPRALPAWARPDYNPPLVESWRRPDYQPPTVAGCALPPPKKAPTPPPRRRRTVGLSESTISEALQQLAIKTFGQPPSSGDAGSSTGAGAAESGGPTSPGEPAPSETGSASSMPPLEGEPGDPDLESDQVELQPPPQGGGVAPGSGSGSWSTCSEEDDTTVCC
human Abl, variant b, wild type (Abl-WT) (P00519-2, form named): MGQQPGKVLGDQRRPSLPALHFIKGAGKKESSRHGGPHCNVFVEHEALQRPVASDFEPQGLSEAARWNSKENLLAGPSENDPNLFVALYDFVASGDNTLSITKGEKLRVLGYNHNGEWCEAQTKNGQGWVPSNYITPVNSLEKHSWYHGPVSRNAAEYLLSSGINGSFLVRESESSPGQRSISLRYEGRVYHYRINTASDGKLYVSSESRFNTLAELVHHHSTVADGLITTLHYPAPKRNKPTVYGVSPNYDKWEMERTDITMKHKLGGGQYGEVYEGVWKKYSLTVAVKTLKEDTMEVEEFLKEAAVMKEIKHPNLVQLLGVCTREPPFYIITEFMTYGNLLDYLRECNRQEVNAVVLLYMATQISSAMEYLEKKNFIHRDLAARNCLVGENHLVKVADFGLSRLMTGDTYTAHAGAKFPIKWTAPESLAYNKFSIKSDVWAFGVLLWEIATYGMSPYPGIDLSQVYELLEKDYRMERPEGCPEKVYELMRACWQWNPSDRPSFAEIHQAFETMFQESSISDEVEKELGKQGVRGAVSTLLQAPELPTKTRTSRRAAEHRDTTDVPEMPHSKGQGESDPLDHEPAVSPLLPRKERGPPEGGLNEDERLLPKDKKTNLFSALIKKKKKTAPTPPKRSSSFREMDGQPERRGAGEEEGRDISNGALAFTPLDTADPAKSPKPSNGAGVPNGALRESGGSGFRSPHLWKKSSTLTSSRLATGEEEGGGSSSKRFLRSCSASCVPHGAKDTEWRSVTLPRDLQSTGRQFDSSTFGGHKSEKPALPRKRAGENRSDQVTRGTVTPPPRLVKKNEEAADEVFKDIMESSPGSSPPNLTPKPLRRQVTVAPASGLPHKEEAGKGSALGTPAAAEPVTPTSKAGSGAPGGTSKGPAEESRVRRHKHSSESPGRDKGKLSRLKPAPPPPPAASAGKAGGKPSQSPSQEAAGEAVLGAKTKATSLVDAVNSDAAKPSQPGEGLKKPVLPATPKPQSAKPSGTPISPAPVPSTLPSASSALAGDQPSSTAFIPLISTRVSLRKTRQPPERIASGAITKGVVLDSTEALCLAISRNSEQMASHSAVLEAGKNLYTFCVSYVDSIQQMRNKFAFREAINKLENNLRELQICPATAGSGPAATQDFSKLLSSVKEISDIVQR

Target: HCV nonstructural protein 5A, JFH1 strain, wild type, Myc-His tagged (NS5A-WT) (hepatitis C virus (JFH1 strain)) (UniProt Q99IB8)
Assay: co-IP; HEK 293T cells transiently cotransfected with Abl and NS5A-myc-His plasmids, 22 h; lysed in lysis buffer (50 mM Tris pH 7.4, 150 mM NaCl, 10 mM EDTA, 100 mM NaF, 1 mM Na3VO4, 1% Triton X-100) lacking DOC and SDS; anti-Myc mAb immunoprecipitation overnight at 4 °C, protein A-Sepharose; immunoblot with anti-Abl

Substance: human Abl, variant b, wild type (Abl-WT) (from UniProt P00519-2 1-1149) (enzyme)
- binding: binds
